In US20180264072A1:
No constants are given. Whether binding was seen depends on the method and setting. Some results given as binding are weak or reduced against the parent protein; the word gives no strength.

Amino acid sequences for entries named in this document (tags omitted). A change or cut given only in a name is not applied to a line headed by its entry.
UniProt Q9Y490: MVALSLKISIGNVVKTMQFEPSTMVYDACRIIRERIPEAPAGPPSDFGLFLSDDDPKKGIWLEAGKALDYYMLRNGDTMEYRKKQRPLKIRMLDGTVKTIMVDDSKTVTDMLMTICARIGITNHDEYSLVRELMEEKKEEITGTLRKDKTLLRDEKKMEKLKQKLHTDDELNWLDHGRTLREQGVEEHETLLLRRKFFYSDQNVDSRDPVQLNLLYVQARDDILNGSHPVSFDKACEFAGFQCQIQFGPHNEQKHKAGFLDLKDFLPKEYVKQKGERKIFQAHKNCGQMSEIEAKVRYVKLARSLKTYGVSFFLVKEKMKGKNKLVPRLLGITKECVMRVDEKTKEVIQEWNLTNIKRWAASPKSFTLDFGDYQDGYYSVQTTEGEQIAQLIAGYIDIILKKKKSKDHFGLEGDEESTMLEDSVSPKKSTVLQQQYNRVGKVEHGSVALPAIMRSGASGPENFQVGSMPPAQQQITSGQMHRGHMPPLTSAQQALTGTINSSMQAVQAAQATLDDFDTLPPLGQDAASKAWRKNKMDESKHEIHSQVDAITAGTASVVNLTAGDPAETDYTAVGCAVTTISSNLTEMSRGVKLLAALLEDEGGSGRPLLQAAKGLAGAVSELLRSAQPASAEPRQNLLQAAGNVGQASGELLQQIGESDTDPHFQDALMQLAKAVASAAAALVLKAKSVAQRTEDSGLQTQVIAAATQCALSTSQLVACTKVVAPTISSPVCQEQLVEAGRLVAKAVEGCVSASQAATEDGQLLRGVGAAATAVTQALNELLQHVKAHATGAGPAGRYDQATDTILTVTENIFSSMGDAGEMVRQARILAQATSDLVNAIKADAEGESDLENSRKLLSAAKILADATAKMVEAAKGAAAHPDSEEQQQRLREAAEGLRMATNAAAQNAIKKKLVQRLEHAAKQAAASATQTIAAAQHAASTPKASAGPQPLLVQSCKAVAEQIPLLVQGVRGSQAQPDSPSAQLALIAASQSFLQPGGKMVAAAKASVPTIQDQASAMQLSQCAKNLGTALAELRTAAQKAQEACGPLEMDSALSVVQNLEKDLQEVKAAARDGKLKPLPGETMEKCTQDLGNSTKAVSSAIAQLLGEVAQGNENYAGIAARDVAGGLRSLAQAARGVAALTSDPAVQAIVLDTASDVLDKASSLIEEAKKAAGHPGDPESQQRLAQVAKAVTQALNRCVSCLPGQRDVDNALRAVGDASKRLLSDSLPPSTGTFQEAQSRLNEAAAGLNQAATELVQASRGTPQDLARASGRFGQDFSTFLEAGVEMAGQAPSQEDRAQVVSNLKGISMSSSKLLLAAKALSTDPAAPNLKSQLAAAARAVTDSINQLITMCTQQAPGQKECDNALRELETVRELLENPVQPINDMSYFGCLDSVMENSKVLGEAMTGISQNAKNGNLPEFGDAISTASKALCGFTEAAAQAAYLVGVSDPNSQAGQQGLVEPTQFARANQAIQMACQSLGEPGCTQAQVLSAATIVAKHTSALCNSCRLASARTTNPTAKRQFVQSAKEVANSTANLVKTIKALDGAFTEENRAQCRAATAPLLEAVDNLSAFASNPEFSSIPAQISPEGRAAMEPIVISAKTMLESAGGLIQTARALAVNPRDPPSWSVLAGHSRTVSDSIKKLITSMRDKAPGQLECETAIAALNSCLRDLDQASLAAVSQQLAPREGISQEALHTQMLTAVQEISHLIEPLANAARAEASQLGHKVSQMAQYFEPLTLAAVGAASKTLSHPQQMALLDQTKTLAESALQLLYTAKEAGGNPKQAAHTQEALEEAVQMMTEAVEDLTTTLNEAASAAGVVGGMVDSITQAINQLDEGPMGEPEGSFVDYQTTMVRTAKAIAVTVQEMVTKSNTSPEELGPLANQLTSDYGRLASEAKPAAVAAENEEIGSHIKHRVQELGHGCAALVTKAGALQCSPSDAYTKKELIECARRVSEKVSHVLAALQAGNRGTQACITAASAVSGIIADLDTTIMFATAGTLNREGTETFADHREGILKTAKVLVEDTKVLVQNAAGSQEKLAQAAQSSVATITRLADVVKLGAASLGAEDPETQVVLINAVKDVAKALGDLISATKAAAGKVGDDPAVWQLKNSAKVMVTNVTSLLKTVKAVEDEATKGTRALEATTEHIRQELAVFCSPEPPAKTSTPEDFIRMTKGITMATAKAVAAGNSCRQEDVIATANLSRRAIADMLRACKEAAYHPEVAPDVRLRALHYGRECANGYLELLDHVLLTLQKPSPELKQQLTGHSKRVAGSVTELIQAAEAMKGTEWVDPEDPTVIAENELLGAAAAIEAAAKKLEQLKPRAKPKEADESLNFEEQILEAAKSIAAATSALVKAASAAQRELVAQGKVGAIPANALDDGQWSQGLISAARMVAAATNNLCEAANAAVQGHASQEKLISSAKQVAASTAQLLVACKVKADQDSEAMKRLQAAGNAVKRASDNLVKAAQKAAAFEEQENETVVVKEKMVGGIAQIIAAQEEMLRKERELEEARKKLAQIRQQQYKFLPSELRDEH
UniProt P18010: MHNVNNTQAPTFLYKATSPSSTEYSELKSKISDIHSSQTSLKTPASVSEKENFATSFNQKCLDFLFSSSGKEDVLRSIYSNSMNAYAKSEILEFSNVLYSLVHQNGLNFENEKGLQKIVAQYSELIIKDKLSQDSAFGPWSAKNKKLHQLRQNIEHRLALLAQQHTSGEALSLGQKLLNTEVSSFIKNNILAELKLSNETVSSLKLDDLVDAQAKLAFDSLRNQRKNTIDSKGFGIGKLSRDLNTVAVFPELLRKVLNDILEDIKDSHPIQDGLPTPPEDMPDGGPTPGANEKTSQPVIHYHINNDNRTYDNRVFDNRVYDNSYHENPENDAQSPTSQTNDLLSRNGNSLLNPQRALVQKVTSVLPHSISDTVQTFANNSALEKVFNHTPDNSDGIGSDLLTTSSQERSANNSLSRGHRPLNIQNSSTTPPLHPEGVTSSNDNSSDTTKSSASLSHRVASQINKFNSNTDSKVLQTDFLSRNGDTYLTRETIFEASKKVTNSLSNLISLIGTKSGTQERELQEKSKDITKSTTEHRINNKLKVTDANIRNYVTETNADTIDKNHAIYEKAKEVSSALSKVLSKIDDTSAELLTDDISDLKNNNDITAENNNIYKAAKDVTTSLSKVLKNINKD

Biological target: talin VBS1 (482-636), yeast two-hybrid prey region (human) (UniProt Q9Y490)
Assay: yeast two-hybrid screen, human placental cDNA library

Substance: IpaA(1-565) yeast two-hybrid bait (from UniProt P18010 1-565)
- binding: binds
